Results deposited as PubChem BioAssay AID1259405 (NCATS, 2018).
The deposit covers about 50,000 reagents; shown is a random part of them. In the full data, about 4,000 (8%) are marked active. 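Mouse siRNA library applied to hamster cells; one well for each siRNA.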 The numbers tell different reagents against one gene apart.

Screen: 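Mouse-designed siRNAs used to find CHO productivity engineering targets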 (primary screen)
Cells: Chinese hamster CHO-K1 ovary cells with stable secreted eGFP expression
Knock-down reagent: single siRNA against mouse genes, 0.8 pmol siRNA per well (2 µl of 400 nM stock)
Duration: 3 days
Measurement: 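Per-well intracellular GFP measured by laser scanning cytometry, plus viability from ATP luminescence, each relative to plate median of non-targeting control wells, in %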
Reading the numbers: GFP, % of control: higher = more GFP per well, higher productivity; viability (ATP), % of control: higher = more viable cells (more ATP)
Active means: 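Called active when intracellular GFP, relative to negative control, is at or above 120%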

gene,reagent,"GFP, % of control","viability (ATP), % of control",Call
St8sia6 (GeneID 241230),1,121,83.6,active
St8sia6 (GeneID 241230),2,71.9,81.4,inactive
St8sia6 (GeneID 241230),3,58.4,63.8,inactive
Hey1 (GeneID 15213),1,54.7,34.1,inactive
Hey1 (GeneID 15213),2,77.8,63.2,inactive
Tagln3 (GeneID 56370),1,56.8,82,inactive
Tagln3 (GeneID 56370),2,46.7,88.5,inactive
Tagln3 (GeneID 56370),3,53.5,52.7,inactive
Hdgf (GeneID 15191),1,61.8,44.6,inactive
Hdgf (GeneID 15191),2,88.9,68.3,inactive
Hdgf (GeneID 15191),3,88.9,72,inactive
Psg26 (GeneID 574429),1,79.9,75.2,inactive
Psg26 (GeneID 574429),2,90,65.3,inactive
Psg26 (GeneID 574429),3,101,93.7,inactive
Smug1 (GeneID 71726),1,95.7,90.5,inactive
Smug1 (GeneID 71726),2,92.5,61.3,inactive
Smug1 (GeneID 71726),3,104,108,inactive
Or2t6 (GeneID 258387),1,113,83.4,inactive
Or2t6 (GeneID 258387),2,62.3,85.9,inactive
Or2t6 (GeneID 258387),3,54.4,87.1,inactive
P3h3 (GeneID 14789),1,90.1,107,inactive
P3h3 (GeneID 14789),2,71.6,88,inactive

Not a retest: an excerpt of the list.
gene,reagent,"GFP, % of control","viability (ATP), % of control",Call
St8sia6 (GeneID 241230),1,121,83.6,active
St8sia6 (GeneID 241230),2,71.9,81.4,inactive

The listing continues.
gene,reagent,"GFP, % of control","viability (ATP), % of control",Call
Arc (GeneID 11838),1,27.1,28.9,inactive
Arc (GeneID 11838),2,93.5,112,inactive
Arc (GeneID 11838),3,109,70,inactive
Ier3ip1 (GeneID 66191),1,55.6,63.7,inactive
Ier3ip1 (GeneID 66191),2,96.5,74.3,inactive
Ier3ip1 (GeneID 66191),3,71.2,59.9,inactive
Tbc1d2b (GeneID 67016),1,79.5,41.8,inactive
Tbc1d2b (GeneID 67016),2,82.3,75.2,inactive
Tbc1d2b (GeneID 67016),3,27.3,55.6,inactive
Gsta3 (GeneID 14859),1,93.1,65,inactive
Gsta3 (GeneID 14859),2,104,103,inactive
Gsta3 (GeneID 14859),3,56.7,52.4,inactive
